Source: PMC8359101
No constants are given. Whether binding was seen depends on the method and setting. Binding seen in cells or lysates may run through a third protein. Here binding means that the protein was enriched with, or labelled near, the bait; the list need not be complete. Tags and fused reporters may be left off the sequences shown.

By UniProt entry, the sequences of proteins in these tests, tags left out.
UniProt P09874: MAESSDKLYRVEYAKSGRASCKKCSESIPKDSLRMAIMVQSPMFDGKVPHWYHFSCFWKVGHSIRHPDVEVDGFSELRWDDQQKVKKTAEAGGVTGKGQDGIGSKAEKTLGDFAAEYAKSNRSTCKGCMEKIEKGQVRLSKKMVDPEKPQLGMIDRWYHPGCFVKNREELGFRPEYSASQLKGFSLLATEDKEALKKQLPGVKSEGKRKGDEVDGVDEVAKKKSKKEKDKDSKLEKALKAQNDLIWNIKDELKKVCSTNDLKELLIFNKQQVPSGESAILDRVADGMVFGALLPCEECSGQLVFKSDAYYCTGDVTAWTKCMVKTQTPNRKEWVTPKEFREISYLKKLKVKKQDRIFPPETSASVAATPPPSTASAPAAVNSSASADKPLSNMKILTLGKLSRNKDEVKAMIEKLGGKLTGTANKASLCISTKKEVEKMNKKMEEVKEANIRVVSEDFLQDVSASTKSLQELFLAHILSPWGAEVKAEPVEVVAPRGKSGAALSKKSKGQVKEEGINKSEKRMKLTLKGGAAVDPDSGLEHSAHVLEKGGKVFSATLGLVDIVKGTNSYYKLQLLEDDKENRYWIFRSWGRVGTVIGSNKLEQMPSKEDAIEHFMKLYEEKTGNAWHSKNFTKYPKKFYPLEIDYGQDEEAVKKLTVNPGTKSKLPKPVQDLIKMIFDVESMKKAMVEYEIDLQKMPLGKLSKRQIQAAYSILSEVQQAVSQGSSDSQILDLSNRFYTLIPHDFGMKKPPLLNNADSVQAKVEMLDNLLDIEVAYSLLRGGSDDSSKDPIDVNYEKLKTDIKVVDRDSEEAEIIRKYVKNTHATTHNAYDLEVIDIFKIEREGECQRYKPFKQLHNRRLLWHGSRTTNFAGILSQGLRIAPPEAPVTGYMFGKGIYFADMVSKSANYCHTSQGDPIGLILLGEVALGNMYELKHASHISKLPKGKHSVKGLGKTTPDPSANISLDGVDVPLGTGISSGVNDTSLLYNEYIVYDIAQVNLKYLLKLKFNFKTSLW

Target: T1, DIDO1-529aa with Flag tag (DIDO1-529aa-Flag), the 529 aa protein encoded by circDIDO1 (human) (UniProt Q9BTC0)
T1 sequence: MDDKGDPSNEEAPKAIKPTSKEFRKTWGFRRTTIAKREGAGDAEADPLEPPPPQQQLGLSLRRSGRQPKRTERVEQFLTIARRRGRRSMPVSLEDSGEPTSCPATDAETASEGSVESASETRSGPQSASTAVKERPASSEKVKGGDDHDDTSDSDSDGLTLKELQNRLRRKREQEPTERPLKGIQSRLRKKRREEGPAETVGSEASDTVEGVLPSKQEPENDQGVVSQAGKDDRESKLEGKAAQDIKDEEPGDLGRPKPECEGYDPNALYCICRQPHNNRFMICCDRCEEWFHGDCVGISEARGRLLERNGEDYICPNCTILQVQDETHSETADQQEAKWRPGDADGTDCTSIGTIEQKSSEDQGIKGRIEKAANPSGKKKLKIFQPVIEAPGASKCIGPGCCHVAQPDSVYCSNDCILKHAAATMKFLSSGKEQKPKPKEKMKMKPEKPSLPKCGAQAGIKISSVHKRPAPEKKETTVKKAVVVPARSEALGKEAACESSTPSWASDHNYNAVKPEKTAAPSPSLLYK
Test: affinity purification with mass spectrometry; Co-IP with anti-Flag antibody (DIDO1-529aa as bait), LC-MS/MS of the co-precipitate; cells not given

- binding: binds
Substance: poly (ADP-ribose) polymerases-1 (PARP1) (from UniProt P09874 1-1014) (enzyme)
